Test results from the supplement of paper PMC10849652.
The list shows a part of the results.

By UniProt entry, the sequences of proteins in these tests, tags left out. Where a name states a change or a piece, a line headed by the entry shows the natural chain unless it says otherwise.
UniProt P62136, whole entry, looked up: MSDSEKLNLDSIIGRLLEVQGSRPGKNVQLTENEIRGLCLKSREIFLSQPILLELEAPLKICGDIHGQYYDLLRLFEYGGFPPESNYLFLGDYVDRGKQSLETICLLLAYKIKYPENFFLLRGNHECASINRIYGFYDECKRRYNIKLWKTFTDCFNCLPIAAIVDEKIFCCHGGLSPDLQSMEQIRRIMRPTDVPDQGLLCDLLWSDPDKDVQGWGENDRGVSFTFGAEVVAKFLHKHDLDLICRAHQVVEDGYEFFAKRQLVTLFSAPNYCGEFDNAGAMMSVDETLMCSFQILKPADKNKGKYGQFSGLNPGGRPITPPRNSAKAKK
UniProt Q5H9R7: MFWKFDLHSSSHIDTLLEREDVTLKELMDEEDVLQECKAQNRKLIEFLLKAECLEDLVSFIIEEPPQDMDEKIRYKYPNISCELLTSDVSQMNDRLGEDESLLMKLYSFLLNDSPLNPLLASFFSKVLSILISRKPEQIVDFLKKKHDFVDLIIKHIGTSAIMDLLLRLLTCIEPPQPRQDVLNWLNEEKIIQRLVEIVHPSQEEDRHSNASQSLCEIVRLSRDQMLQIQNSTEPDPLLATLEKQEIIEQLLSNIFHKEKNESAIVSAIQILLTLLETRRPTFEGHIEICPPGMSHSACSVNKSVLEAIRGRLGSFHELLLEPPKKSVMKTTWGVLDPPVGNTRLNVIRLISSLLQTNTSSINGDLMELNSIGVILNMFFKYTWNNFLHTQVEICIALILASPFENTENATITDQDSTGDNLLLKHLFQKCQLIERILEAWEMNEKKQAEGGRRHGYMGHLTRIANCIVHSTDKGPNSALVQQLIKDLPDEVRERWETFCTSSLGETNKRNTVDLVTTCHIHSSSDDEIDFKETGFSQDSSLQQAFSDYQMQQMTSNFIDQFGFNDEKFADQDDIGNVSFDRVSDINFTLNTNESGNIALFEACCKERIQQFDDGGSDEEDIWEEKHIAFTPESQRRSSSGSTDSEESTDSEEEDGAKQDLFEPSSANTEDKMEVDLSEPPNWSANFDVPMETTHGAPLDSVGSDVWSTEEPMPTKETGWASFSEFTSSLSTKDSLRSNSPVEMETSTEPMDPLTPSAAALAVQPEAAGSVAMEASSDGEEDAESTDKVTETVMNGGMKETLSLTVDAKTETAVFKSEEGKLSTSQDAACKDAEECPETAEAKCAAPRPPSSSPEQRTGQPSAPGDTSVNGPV
UniProt P05771, whole entry, looked up: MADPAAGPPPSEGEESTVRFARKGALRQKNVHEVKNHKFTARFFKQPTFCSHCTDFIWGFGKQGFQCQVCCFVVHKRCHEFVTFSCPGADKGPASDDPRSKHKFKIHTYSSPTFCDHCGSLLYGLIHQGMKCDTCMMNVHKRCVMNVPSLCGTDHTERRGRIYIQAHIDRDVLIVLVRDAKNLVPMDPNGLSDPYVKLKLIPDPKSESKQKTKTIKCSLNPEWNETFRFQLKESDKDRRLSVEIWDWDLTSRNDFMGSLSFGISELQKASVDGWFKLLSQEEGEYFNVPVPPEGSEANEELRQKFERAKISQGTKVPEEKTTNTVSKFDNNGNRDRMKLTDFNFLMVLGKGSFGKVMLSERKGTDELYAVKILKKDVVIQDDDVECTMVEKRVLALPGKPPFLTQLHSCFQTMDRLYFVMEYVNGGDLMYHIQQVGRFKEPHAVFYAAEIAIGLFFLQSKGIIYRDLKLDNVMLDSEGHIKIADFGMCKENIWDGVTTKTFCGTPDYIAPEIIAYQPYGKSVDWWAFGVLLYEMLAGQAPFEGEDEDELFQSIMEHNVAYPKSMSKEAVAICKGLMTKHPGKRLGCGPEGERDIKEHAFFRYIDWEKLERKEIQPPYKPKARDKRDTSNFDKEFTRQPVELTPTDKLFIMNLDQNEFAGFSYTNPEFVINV
UniProt K7ELL7: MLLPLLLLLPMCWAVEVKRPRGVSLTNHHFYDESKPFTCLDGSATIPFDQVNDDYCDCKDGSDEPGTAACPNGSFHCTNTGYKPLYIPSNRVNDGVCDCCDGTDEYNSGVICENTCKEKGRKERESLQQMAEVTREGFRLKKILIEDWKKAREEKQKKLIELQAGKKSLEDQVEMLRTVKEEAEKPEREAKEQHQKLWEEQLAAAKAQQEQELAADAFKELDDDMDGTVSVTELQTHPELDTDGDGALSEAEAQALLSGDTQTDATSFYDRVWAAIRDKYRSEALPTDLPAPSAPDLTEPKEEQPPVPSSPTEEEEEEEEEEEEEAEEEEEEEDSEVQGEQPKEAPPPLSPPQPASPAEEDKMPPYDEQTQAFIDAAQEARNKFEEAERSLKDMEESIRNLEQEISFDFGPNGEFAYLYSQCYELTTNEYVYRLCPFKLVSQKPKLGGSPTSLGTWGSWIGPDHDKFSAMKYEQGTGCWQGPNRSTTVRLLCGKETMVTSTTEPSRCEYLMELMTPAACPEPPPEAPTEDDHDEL
UniProt O43741: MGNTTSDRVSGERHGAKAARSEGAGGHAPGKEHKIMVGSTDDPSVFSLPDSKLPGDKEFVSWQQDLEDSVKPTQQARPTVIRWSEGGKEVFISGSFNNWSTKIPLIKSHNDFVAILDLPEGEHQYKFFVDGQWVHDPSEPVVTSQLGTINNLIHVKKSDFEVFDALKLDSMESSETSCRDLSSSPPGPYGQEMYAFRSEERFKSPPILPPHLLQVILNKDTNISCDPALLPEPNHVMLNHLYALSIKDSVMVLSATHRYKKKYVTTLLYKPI
UniProt Q96A00: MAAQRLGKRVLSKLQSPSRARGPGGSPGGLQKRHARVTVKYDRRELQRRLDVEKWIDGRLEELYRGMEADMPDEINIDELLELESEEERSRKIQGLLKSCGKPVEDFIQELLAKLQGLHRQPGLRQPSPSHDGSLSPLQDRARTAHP
UniProt Q13131: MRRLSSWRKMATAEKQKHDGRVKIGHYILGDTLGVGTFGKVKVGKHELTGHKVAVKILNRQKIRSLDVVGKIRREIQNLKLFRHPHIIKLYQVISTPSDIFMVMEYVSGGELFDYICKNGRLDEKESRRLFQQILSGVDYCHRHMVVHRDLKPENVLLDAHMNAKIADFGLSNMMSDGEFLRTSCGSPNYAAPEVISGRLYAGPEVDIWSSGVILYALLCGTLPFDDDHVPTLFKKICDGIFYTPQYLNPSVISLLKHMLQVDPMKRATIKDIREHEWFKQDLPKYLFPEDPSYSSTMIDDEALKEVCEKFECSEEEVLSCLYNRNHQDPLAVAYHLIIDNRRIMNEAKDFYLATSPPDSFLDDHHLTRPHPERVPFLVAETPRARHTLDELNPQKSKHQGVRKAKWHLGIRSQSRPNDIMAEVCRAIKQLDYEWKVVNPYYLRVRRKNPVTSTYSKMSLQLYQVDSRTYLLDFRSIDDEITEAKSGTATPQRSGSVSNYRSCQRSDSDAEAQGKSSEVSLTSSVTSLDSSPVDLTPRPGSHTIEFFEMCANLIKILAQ
UniProt Q9NVM4: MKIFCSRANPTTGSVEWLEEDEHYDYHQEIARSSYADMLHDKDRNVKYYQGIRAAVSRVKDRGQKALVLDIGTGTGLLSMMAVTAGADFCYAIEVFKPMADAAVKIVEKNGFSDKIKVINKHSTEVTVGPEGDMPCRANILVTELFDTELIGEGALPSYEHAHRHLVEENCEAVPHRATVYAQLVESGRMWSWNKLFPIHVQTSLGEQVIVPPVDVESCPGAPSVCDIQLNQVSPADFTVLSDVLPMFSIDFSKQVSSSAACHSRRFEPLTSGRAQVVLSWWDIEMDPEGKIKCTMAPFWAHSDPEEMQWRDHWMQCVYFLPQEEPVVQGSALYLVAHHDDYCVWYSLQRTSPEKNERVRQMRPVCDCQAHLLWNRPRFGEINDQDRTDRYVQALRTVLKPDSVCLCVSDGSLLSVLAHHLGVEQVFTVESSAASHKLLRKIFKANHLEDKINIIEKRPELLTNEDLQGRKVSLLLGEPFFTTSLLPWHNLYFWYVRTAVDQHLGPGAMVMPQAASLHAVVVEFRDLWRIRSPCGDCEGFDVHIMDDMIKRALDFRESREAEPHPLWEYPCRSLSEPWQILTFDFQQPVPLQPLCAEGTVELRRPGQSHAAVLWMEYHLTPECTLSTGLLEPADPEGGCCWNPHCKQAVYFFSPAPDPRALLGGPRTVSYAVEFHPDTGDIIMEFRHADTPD
UniProt Q13523: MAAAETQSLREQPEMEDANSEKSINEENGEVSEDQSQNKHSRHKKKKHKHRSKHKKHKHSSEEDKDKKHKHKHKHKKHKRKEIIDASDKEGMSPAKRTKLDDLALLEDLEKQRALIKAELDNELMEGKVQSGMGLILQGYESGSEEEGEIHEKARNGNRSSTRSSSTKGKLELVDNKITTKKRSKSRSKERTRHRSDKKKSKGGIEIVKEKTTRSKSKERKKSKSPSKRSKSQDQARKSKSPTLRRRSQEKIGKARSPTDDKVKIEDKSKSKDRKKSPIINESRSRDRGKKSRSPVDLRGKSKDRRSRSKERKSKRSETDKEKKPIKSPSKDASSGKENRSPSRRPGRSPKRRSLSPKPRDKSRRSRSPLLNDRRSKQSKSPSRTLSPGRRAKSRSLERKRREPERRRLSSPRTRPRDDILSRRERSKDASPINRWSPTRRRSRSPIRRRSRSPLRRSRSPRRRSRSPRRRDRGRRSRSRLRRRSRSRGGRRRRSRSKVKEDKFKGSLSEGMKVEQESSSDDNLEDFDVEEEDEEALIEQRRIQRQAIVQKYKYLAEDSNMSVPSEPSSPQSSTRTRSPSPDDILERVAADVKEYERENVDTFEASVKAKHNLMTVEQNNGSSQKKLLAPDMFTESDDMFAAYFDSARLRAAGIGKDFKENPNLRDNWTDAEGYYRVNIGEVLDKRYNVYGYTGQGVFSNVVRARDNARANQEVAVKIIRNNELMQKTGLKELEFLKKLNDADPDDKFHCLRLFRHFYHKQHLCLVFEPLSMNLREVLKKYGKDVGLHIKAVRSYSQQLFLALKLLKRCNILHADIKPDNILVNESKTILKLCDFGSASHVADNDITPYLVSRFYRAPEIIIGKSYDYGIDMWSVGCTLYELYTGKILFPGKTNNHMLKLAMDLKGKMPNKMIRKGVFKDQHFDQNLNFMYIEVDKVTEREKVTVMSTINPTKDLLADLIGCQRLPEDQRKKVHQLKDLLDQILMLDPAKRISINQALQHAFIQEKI
UniProt P31321, whole entry, looked up: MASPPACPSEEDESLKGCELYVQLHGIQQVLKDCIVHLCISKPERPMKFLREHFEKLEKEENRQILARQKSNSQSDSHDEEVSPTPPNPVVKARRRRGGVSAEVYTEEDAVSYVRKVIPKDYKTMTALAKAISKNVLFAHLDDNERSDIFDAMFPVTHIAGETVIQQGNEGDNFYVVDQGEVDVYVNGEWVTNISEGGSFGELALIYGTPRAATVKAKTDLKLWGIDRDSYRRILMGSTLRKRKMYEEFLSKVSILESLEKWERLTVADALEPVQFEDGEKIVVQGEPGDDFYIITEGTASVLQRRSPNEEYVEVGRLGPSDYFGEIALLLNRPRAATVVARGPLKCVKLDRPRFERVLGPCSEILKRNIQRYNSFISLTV
UniProt Q9BSG0: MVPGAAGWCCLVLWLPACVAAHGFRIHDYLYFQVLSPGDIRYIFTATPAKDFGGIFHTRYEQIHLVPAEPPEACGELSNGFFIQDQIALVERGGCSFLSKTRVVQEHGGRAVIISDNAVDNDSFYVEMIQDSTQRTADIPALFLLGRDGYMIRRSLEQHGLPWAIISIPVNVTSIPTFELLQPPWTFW
UniProt Q9UNN8: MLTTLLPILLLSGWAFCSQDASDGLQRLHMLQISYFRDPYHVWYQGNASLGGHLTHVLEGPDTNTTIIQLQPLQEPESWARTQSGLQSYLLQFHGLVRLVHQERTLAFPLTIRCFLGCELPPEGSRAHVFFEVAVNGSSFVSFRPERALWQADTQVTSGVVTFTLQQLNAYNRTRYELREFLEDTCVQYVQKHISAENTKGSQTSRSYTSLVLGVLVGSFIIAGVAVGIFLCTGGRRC
UniProt Q05655: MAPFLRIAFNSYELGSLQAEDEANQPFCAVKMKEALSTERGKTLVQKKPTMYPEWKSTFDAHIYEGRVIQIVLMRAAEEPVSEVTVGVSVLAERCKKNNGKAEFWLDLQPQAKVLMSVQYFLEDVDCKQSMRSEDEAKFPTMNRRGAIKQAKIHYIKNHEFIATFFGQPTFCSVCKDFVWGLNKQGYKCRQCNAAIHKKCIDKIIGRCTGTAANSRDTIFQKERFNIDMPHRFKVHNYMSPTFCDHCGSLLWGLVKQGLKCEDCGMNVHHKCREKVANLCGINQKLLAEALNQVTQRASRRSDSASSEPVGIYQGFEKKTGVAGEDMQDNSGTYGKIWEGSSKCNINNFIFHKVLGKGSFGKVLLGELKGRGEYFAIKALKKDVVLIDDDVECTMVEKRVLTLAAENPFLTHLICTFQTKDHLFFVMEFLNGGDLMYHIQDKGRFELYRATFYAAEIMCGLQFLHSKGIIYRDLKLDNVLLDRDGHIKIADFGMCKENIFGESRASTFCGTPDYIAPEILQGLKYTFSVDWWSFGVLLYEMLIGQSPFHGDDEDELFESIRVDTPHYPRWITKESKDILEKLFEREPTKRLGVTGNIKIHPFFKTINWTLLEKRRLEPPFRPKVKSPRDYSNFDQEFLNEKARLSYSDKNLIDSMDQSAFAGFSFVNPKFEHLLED

Compound: Cc1ccc(-n2nc(C(C)(C)C)cc2NC(=O)Nc2ccc(OCCN3CCOCC3)c3ccccc23)cc1 [doramapimod]
Assay: log2 fold change, soluble protein after heating vs DMSO (PISA); higher = thermal stabilisation; K562 cells, 10 uM, 30 min; active = over 0.2 and 3.5 SD of the protein, either way, in both replicates (recomputed)
Outline: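 K562 cells at 2×10^6 cells/mL were exposed to 10 μM compound for 30 min, then aliquots were heated for 3 min across 48°C-58°C, pooled, and extracted in PBS containing 0.5% NP-40 at 4°C. The supernatant after 21,000xg for 90 min was taken as soluble protein and measured by TMTpro 16plex LC-MS/MS with channel sums equalised. Thermal stability is reported relative to control samples, with values from duplicates. Fold changes are given on a log2 scale.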

Target | log2 fold change
PPP1CA (UniProt P62136) | inactive: -0.003
PPP1R14B (UniProt Q96C90) | inactive: 0.072
PRKAG1 isoform 3 (UniProt P54619) | inactive: -0.003
PPP6R3 isoform 5 (UniProt Q5H9R7) | inactive: -0.007
PRKAR2B (UniProt P31323) | inactive: 0.073
PRPSAP1 isoform 2 (UniProt Q14558) | inactive: -0.029
PRKCQ (UniProt Q04759) | inactive: 0.038
PPM1G (UniProt O15355) | inactive: -0.008
PRKCB isoform 2 (UniProt P05771) | inactive: -0.01
PRMT8 (UniProt Q9NR22) | inactive: -0.021
PPP2R5C isoform 4 (UniProt Q13362) | inactive: -0.06
PRKCSH (UniProt K7ELL7) | inactive: -0.05
PRKAB2 (UniProt O43741) | inactive: -0.041
PRPF18 (UniProt Q99633) | inactive: -0.013
PRKCA (UniProt P17252) | inactive: 0.01
PRKDC (UniProt P78527) | inactive: -0.053

Target | log2 fold change
PPP2R5A (UniProt Q15172) | inactive: -0.019
PPP1R14A (UniProt Q96A00) | inactive: -0.086
PRKACA (UniProt P17612) | inactive: 0.019
PRKAA1 isoform 2 (UniProt Q13131) | inactive: -0.019
PRMT7 (UniProt Q9NVM4) | inactive: 0.038
PPP1R35 (UniProt Q8TAP8) | inactive: 0.024
PRPF4B (UniProt Q13523) | inactive: 0.044
PRKAR2A (UniProt P13861) | inactive: 0.03
PRSS2 (UniProt P07478) | inactive: 0.022
PRKAR1B (UniProt P31321) | inactive: -0.03
PRADC1 (UniProt Q9BSG0) | inactive: 0.105
PROCR (UniProt Q9UNN8) | inactive: -0.074
PRKCD (UniProt Q05655) | inactive: 0.005
PPP1R12A (UniProt O14974) | inactive: -0.054
PRKRA (UniProt O75569) | inactive: -0.069
PPP6R1 (UniProt Q9UPN7) | inactive: 0.01

Some of the entries above in a different format.
Target,log2 fold change
PPP2R5A (UniProt Q15172),inactive: -0.019
PPP1R14A (UniProt Q96A00),inactive: -0.086
PRKACA (UniProt P17612),inactive: 0.019
PPP1R35 (UniProt Q8TAP8),inactive: 0.024
PRPF4B (UniProt Q13523),inactive: 0.044
PRSS2 (UniProt P07478),inactive: 0.022
PRKAR1B (UniProt P31321),inactive: -0.03
PRKCD (UniProt Q05655),inactive: 0.005
PPP6R1 (UniProt Q9UPN7),inactive: 0.01
